Series [1] concerns the target RAD51 K133R (KR) (Homo sapiens) (UniProt Q06609). In words: EMSA. The following applies: 1 mM ATP, 1 mM Mg2+, no Ex27, complex disassembled by GST-BRC3; EMSA: 10 mM Tris-HCl pH 7.5, 10 mM KCl, 1 mM MgCl2, 1 mM ATP, 1 mM DTT, 25 C, 25 nM DNA, 1.1 uM RAD51; recombinant protein; label: 5' FAM (FITC); single-stranded DNA. (A gel shift assay detects complexes by their altered migration in electrophoresis.)

By UniProt entry, the sequences of proteins in these tests, tags left out.
UniProt Q06609, whole entry K133R: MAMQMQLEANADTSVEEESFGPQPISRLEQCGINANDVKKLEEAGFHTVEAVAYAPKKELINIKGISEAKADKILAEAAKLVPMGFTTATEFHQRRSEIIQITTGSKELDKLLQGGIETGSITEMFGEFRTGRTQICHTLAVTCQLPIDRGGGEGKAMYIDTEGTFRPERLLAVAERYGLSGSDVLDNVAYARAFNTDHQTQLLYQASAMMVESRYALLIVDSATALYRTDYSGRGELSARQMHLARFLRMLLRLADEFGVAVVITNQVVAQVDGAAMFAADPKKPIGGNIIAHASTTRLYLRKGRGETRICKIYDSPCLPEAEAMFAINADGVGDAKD
UniProt Q06609, whole entry K133R/S181P: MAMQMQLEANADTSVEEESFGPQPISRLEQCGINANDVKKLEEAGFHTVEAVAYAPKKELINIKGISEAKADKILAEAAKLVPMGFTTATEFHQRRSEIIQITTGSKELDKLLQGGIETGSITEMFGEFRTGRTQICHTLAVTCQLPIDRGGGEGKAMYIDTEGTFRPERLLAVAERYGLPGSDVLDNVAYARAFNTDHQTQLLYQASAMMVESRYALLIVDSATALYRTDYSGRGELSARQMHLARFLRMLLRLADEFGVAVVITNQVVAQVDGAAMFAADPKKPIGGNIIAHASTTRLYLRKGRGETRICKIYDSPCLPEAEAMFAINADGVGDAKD
UniProt Q06609, whole entry S181P: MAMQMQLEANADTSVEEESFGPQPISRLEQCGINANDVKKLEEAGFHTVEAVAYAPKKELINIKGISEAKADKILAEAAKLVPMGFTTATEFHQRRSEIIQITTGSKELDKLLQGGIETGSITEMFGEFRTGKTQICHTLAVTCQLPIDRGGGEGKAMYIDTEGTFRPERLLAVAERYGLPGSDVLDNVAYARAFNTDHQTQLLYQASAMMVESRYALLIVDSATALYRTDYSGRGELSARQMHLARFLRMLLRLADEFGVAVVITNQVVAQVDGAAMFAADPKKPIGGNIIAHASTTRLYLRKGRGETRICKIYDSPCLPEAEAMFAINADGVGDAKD

The target in series [2] is RAD51 K133R/S181P (KR/SP) (Homo sapiens) (UniProt Q06609). The experiment in a line: EMSA. The following applies: 1 mM ATP, 1 mM Mg2+, no Ex27, complex disassembled by GST-BRC3; EMSA: 10 mM Tris-HCl pH 7.5, 10 mM KCl, 1 mM MgCl2, 1 mM ATP, 1 mM DTT, 25 C, 25 nM DNA, 1.1 uM RAD51; recombinant protein; label: 5' FAM (FITC); single-stranded DNA.
For series [3], the target named is RAD51 S181P (SP) (Homo sapiens) (UniProt Q06609). The experiment in a line: EMSA. The following applies: 1 mM ATP, 1 mM Mg2+, no Ex27, complex disassembled by GST-BRC3; EMSA: 10 mM Tris-HCl pH 7.5, 10 mM KCl, 1 mM MgCl2, 1 mM ATP, 1 mM DTT, 25 C, 25 nM DNA, 1.1 uM RAD51; recombinant protein; label: 5' FAM (FITC); single-stranded DNA.
In series [4] the test system is RAD51 K133R/S181P (KR/SP) + BRCA2 Ex27 peptide (TR2). In words: EMSA super-shift. The following applies: 5.7 uM Ex27, 1 mM ATP, 1 mM Mg2+, no ternary complex with Ex27 (KR/SP itself binds DNA), not protected from GST-BRC3; EMSA: 10 mM Tris-HCl pH 7.5, 10 mM KCl, 1 mM MgCl2, 1 mM ATP, 1 mM DTT, 25 C, 25 nM DNA, 1.1 uM RAD51; recombinant protein; label: 5' FAM (FITC); single-stranded DNA.

For series [5], the system named is RAD51 S181P (SP) + BRCA2 Ex27 peptide (TR2). The experiment in a line: EMSA super-shift. The following applies: 5.7 uM Ex27, 1 mM ATP, 1 mM Mg2+, no ternary complex with Ex27 (SP itself binds DNA), not protected from GST-BRC3; EMSA: 10 mM Tris-HCl pH 7.5, 10 mM KCl, 1 mM MgCl2, 1 mM ATP, 1 mM DTT, 25 C, 25 nM DNA, 1.1 uM RAD51; recombinant protein; label: 5' FAM (FITC); single-stranded DNA.

For series [6] the test system is unchanged. In words: BLI. The following applies: 10 uM Ex27, 2 mM ATP, 5 mM Mg2+, no Ex27 association with SP filament (SP itself binds DNA); BLI: 50 mM Tris-HCl pH 7.5, 50 mM KCl, 5 mM MgCl2, 2 mM ATP, 0.05% Tween 20, 15 nM DNA; recombinant protein; label: 3' biotin; single-stranded DNA.
Series [7] has as its system RAD51 WT + BRCA2 Ex27 peptide (TR2). The experiment in a line: BLI. The following applies: 10 uM Ex27, 2 mM ATP, 5 mM Mg2+, Ex27 suppresses GST-BRC4-induced dissociation; BLI: 50 mM Tris-HCl pH 7.5, 50 mM KCl, 5 mM MgCl2, 2 mM ATP, 0.05% Tween 20, 15 nM DNA; recombinant protein; label: 3' biotin; single-stranded DNA.
The test system of series [8] is RAD51 S181P (SP) + BRCA2 Ex27 peptide (TR2). The experiment in a line: stopped-flow PIFE. The following applies: Ex27 has no effect on SP assembly (no ternary complex, SP itself binds DNA); recombinant protein; label: 5' Cy3; single-stranded DNA.

Construct, isoform or probe ends are uncertain for at least one entry. For some assays here: A negative result means that nothing was seen under these conditions. For some assays here: At least one verdict was read from the data and is not stated in words by the source.

Turning to “AAATCAATCTAAAGTATATATGAGTAAACTTGGTCTGACAGTTACCAATGCTTAATCAGTGAGGCACCTATCTCAGCGATCTGTCTATTT [5'FITC-90mer ssDNA]”, the binding result in series [1] is “binds”; in series [2] it was “binds”; in series [3], “binds”; in series [4], “no binding”; in series [5], “no binding”.

As for “TTTTTTTTTTTTTTTTTTTTTTTTTTTTTTTTTTTTTTTTTTT [oligo-dT 43-mer]”, the results for the binding result in series [6] and in series [7] were “no binding” and “binds”, respectively.

As to “TTTTTTTTTTTTTTTTTTTTTTTTTTTTTTTTTTTTTTTTTTTTTTTTTTTTTTTTTTTTTTTTTTTTTTTTTTTTTTT [Cy3-(dT)79]”, the binding result in series [8] is “no binding”.

(Values after article PMC10993188.)
